Measured values as given in PMC6361588, “Exploration of CTCF post-translation modifications uncovers Serine-224 phosphorylation by PLK1 at pericentric regions during the G2/M transition”.

Target: T1, FLAG-CTCF-6xHis wild type (UniProt Q61164)
T1 sequence (looked up, limits assumed): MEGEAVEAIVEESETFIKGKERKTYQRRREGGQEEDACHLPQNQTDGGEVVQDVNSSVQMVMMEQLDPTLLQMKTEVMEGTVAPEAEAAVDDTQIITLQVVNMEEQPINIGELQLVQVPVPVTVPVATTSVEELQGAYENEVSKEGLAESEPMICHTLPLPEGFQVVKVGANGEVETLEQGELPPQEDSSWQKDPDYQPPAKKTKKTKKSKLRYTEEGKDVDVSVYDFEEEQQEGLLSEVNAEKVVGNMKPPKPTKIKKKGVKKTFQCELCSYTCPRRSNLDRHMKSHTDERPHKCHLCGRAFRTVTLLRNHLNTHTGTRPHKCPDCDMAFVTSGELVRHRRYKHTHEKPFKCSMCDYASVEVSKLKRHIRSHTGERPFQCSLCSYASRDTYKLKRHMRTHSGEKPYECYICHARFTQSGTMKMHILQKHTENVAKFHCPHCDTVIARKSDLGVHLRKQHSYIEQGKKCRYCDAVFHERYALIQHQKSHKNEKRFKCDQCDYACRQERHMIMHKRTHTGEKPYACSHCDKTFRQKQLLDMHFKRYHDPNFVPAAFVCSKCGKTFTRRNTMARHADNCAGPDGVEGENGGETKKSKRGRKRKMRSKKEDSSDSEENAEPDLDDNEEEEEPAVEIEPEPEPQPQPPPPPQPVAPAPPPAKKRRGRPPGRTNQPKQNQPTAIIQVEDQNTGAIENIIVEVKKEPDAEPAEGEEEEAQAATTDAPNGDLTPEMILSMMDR
Test: EMSA
Conditions: 0.5, 1 or 2 pmol protein; EMSA as in Sun et al., 2013; recombinant protein; protein details: N-terminal FLAG, C-terminal 6xHis

“CTATGCATTAGGTTTGGGTGTTATACCCGTGTAGGCCAGCAGAGGGTGTCGGATCCCAAGGAAACCAAGTTACAGACGCC (double strand) [RS14C]”: binds.

The exact form of at least one protein or probe is not confirmed. At least one verdict was read from the data and is not stated in words by the source. Protein sequences can lack the tags named with them.
